Test results as given in the supplement of paper PMC10849652.
The list shows a part of the results.

Protein sequences, listed by entry. Tags and fused reporters are not part of them. Lines headed by an entry give the natural chain unless they say otherwise; changes in a name come on top.
UniProt O00303, whole entry, looked up: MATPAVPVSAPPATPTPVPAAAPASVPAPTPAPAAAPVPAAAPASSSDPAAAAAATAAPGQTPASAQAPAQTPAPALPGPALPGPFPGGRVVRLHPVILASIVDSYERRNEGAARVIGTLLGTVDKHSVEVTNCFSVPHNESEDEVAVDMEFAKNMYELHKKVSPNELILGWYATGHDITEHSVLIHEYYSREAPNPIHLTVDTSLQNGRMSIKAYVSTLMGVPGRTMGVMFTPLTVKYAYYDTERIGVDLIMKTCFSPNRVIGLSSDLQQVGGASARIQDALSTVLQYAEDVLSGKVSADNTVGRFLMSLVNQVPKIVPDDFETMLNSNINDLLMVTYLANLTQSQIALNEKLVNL
UniProt Q9BQ52: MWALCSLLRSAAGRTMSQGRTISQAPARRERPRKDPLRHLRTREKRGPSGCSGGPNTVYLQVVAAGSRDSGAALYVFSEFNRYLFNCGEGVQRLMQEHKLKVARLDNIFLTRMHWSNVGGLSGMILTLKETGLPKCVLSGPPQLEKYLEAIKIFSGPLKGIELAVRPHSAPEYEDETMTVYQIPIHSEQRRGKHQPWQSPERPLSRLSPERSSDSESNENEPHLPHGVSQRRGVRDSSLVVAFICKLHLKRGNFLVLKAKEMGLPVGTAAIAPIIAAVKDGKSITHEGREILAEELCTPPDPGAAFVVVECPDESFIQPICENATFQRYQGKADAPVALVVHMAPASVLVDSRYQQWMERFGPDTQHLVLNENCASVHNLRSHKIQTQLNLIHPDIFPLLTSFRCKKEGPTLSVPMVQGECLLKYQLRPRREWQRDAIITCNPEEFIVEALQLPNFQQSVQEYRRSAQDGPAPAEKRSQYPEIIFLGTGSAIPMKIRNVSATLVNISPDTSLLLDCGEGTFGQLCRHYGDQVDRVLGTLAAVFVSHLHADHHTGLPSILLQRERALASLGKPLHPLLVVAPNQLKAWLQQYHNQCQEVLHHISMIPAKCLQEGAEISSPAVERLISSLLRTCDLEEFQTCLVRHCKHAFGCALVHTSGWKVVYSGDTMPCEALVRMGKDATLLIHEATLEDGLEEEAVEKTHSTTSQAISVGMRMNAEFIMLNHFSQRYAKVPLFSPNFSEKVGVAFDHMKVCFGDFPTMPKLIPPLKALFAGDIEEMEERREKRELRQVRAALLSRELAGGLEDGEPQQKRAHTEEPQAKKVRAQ
UniProt Q7L2H7, whole entry, looked up: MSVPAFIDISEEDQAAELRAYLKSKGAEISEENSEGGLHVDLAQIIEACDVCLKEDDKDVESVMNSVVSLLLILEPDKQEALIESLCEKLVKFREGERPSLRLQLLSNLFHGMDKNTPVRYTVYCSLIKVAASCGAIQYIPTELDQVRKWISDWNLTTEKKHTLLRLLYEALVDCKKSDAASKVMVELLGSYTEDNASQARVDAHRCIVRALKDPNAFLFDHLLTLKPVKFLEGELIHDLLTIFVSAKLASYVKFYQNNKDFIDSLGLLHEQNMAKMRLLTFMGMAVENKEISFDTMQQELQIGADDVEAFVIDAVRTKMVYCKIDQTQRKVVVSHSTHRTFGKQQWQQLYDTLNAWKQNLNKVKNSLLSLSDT
UniProt Q09472, whole entry, looked up: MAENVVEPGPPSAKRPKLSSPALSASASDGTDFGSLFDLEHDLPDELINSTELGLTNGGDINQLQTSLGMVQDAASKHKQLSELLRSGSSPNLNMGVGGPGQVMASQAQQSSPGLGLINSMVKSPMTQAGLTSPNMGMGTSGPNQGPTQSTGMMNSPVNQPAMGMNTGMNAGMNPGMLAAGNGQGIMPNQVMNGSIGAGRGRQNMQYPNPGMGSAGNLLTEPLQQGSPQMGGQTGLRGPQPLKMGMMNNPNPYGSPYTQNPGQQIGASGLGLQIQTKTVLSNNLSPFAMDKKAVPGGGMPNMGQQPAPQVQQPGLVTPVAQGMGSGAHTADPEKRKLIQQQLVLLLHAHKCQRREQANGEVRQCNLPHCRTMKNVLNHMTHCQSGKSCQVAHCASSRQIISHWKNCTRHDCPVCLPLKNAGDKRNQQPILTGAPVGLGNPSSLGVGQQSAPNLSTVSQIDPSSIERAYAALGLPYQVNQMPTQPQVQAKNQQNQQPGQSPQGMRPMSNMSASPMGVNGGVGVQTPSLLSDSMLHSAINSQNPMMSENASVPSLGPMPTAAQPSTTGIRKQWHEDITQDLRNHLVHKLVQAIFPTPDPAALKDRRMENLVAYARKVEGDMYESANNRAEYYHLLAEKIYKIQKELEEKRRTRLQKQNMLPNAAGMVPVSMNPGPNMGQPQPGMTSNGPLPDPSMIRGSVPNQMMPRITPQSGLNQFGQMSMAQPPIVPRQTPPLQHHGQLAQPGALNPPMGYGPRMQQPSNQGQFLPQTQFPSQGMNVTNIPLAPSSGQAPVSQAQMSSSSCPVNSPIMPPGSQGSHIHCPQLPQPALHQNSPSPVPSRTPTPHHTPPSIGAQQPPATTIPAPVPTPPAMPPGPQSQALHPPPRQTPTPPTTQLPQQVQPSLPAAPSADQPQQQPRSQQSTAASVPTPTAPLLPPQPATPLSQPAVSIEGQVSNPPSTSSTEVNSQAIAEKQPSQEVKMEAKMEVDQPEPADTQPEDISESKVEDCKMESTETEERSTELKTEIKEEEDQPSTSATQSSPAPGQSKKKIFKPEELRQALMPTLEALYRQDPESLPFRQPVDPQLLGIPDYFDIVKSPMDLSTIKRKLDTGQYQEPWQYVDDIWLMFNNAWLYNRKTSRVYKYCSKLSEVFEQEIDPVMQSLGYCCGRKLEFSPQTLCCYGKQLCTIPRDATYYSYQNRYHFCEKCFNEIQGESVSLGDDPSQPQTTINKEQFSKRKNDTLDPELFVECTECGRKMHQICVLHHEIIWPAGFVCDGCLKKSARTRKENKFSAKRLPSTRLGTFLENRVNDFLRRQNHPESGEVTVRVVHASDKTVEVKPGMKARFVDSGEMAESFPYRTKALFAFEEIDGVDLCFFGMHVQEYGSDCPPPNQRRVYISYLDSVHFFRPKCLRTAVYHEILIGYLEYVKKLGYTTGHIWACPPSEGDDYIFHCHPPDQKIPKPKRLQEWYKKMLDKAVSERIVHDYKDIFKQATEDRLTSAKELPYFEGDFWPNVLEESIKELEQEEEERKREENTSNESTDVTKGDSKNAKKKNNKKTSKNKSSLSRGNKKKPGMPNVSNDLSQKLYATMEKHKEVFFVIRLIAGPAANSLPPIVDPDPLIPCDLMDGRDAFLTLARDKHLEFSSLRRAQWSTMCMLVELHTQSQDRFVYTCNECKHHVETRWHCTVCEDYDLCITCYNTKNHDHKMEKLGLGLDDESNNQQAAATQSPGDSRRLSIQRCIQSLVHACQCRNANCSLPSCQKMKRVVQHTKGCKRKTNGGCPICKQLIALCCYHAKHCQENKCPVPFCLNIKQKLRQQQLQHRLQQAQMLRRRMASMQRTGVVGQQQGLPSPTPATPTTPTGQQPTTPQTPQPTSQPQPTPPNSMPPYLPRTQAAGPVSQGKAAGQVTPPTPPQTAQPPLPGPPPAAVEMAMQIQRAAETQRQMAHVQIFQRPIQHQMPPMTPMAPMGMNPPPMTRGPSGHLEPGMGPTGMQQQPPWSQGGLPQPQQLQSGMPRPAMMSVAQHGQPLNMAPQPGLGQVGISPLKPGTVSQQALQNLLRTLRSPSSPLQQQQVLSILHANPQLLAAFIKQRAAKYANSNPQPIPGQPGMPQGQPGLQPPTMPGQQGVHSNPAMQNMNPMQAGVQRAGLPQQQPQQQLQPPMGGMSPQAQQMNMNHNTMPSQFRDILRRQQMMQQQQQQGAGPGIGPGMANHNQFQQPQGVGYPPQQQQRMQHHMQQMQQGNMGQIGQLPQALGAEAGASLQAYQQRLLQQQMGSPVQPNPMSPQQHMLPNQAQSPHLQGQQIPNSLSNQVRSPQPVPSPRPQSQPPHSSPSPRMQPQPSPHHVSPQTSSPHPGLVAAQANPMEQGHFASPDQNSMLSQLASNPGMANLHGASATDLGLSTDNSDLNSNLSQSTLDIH
UniProt Q5NDL2: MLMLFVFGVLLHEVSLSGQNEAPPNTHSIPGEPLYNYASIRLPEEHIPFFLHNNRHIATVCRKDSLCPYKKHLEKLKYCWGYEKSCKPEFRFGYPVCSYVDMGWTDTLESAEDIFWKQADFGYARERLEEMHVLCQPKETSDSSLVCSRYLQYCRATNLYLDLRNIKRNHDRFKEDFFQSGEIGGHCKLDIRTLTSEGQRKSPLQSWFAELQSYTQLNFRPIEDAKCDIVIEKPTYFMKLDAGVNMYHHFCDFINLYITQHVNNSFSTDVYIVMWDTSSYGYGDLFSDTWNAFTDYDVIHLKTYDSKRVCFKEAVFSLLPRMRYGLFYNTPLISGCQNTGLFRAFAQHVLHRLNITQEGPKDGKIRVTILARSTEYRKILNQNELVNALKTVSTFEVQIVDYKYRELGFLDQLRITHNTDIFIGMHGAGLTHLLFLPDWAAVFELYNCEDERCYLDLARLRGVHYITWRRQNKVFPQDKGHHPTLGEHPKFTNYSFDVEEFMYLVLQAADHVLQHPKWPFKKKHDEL
UniProt P49770: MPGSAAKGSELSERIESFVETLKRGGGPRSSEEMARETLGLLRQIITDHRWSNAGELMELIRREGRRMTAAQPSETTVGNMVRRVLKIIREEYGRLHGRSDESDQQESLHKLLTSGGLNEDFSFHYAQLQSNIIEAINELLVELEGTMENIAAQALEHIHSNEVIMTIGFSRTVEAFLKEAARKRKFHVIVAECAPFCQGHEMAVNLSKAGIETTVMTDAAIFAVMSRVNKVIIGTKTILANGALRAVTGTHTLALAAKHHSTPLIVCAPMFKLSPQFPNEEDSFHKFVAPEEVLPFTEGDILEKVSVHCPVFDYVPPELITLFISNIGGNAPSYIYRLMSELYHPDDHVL
UniProt Q04637, whole entry, looked up: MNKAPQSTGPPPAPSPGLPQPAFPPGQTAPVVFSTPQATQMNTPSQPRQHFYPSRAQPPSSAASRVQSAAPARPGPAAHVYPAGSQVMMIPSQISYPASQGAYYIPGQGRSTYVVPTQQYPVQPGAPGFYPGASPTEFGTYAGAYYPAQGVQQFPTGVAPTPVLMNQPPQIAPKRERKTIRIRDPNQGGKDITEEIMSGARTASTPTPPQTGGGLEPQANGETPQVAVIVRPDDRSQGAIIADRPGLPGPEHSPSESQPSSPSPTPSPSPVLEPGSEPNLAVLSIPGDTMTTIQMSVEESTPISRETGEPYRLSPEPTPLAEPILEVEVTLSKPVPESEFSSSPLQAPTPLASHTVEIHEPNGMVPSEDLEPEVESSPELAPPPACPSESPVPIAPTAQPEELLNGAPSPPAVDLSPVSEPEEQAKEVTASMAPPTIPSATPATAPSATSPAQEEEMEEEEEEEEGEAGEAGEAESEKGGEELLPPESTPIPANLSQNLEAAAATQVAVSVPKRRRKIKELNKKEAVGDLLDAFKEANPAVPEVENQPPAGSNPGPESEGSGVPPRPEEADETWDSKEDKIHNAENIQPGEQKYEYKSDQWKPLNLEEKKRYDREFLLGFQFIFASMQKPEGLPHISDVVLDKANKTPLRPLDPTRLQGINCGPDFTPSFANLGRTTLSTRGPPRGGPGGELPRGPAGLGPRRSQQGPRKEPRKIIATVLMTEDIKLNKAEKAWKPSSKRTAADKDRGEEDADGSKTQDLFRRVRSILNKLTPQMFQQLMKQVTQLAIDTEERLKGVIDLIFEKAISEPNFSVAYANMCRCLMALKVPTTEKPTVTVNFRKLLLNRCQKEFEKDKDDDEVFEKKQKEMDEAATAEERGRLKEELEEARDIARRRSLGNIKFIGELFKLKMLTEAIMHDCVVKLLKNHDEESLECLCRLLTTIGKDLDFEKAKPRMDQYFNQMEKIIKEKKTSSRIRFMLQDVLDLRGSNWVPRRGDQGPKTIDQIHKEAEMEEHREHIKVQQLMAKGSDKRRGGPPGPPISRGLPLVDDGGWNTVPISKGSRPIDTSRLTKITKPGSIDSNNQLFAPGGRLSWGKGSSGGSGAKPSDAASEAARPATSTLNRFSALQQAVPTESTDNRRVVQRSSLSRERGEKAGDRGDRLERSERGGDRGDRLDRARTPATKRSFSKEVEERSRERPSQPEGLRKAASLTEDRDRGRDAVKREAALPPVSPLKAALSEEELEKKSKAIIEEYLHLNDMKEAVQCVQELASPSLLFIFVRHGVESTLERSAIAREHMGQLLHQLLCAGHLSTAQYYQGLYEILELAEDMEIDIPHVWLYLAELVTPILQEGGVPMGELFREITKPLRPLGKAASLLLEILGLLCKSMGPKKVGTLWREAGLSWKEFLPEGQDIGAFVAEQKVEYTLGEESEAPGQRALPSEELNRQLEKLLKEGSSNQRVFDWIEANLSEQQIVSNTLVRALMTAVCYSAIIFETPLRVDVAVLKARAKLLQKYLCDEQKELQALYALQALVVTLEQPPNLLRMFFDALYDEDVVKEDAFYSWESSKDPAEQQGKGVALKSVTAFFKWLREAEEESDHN

Legend:
Assay in all cases: log2 fold change, soluble protein after heating vs DMSO (PISA); higher = thermal stabilisation; K562 cells, 10 uM, 30 min; active = over 0.2 and 3.5 SD of the protein, either way, in both replicates (recomputed)
[1] = compound: CS(=O)(=O)c1ccc(-c2cnc(N)c(C(=O)Nc3ccccc3)n2)cc1
In short: (§1)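 Soluble protein was defined as the supernatant after 21,000xg for 90 min. It came from K562 cells at 2×10^6 cells/mL given 10 μM compound for 30 min, heated in aliquots for 3 min across 48°C-58°C, pooled, and extracted in PBS with 0.5% NP-40 at 4°C, and was quantified by TMTpro 16plex LC-MS/MS with equalised channel sums. Thermal stability against control samples, from duplicates, is reported as log2 fold change.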

crizotinib = compound: C[C@@H](Oc1cc(-c2cnn(C3CCNCC3)c2)cnc1N)c1c(Cl)ccc(F)c1Cl [crizotinib]
In short: as §1

[2] = compound: C[C@@H]1COCCN1C2=NC(=NC(=C2)C3(CC3)S(=O)(=O)C)C4=C5C=CNC5=CC=C4
In short: as §1

[3] = compound: C[C@H](C1=CC=C(C=C1)C(=O)NC2=C3C=CNC3=NC=C2)N
In short: as §1

duvelisib = compound: C[C@H](Nc1ncnc2nc[nH]c12)c1cc2cccc(Cl)c2c(=O)n1-c1ccccc1 [duvelisib]
In short: as §1

gandotinib = compound: Cc1cc(Nc2cc(CN3CCOCC3)c3nc(C)c(Cc4ccc(Cl)cc4F)n3n2)n[nH]1 [gandotinib]
In short: as §1

tozasertib = compound: Cc1cc(Nc2cc(N3CCN(C)CC3)nc(Sc3ccc(NC(=O)C4CC4)cc3)n2)n[nH]1 [tozasertib]
In short: as §1

[4] = compound: Cc1cc(SCc2sc(-c3ccc(C(F)(F)F)cc3)nc2C)ccc1OCC(=O)O
In short: as §1

doramapimod = compound: Cc1ccc(-n2nc(C(C)(C)C)cc2NC(=O)Nc2ccc(OCCN3CCOCC3)c3ccccc23)cc1 [doramapimod]
In short: as §1

ispinesib = compound: Cc1ccc(C(=O)N(CCCN)[C@@H](c2nc3cc(Cl)ccc3c(=O)n2Cc2ccccc2)C(C)C)cc1 [ispinesib]
In short: as §1

bafetinib = compound: Cc1ccc(NC(=O)c2ccc(CN3CC[C@H](N(C)C)C3)c(C(F)(F)F)c2)cc1Nc1nccc(-c2cncnc2)n1 [bafetinib]
In short: as §1

[5] = compound: Cc1cccc(CC(=O)N2CCc3c2ccc(-c2cn(C)c4ncnc(N)c24)c3F)n1
In short: as §1

nilotinib = compound: Cc1cn(-c2cc(NC(=O)c3ccc(C)c(Nc4nccc(-c5cccnc5)n4)c3)cc(C(F)(F)F)c2)cn1 [nilotinib]
In short: as §1

[6] = compound: Cc1nc(Nc2n[nH]c3c2CN(C(=O)N[C@H](CN(C)C)c2ccccc2)C3(C)C)c2sccc2n1
In short: as §1

dasatinib = compound: Cc1nc(Nc2ncc(C(=O)Nc3c(C)cccc3Cl)s2)cc(N2CCN(CCO)CC2)n1 [dasatinib]
In short: as §1

[7] = compound: Cc1ncc(-c2ccnc(Nc3ccc(S(C)(=O)=O)cc3)n2)n1C(C)C
In short: as §1

[8] = compound: Cn1cc(-c2ccc3c(c2)CCN3C(=O)Cc2cccc(C(F)(F)F)c2)c2c(N)ncnc21
In short: as §1

[9] = compound: Cn1cc(-c2ccc3nnc(C(F)(F)c4ccc5ncccc5c4)n3n2)cn1
In short: as §1

tipifarnib = compound: Cn1cncc1[C@@](N)(c1ccc(Cl)cc1)c1ccc2c(c1)c(-c1cccc(Cl)c1)cc(=O)n2C [tipifarnib]
In short: as §1

mubritinib = compound: FC(F)(F)c1ccc(/C=C/c2nc(COc3ccc(CCCCn4ccnn4)cc3)co2)cc1 [mubritinib]
In short: as §1

Measured: log2 fold change

EFTUD2 (UniProt Q15029)
inactive: [1] -0.057 | crizotinib 0.099 | [2] 0.009 | [3] -0.044 | duvelisib -0.011 | gandotinib -0.028 | tozasertib -0.015 | [4] -0.054 | doramapimod 0 | ispinesib 0.037 | bafetinib -0.003 | [5] 0.017 | nilotinib 0.024 | [6] 0.034 | dasatinib 0.06 | [7] 0.005 | [8] -0.014 | [9] -0.021 | tipifarnib 0.007 | mubritinib 0.007

ELP4 isoform 3 (UniProt Q96EB1)
inactive: [1] -0.002 | crizotinib 0.041 | [2] -0.018 | [3] -0.064 | duvelisib 0.003 | gandotinib 0.04 | tozasertib -0.028 | [4] -0.032 | doramapimod -0.003 | ispinesib 0.029 | bafetinib 0.006 | [5] 0.003 | nilotinib 0.02 | [6] 0.031 | dasatinib 0.017 | [7] 0.004 | [8] 0.013 | [9] -0.023 | tipifarnib -0.038 | mubritinib 0.044

EIF3F (UniProt O00303)
inactive: [1] -0.02 | crizotinib 0.037 | [2] 0.073 | [3] 0.05 | duvelisib 0.03 | gandotinib -0.028 | tozasertib 0.108 | [4] 0.1 | doramapimod 0.059 | ispinesib -0.014 | bafetinib 0.077 | [5] 0.002 | nilotinib -0.04 | [6] -0.058 | dasatinib -0.051 | [7] 0.03 | [8] -0.029 | [9] -0.07 | tipifarnib -0.053 | mubritinib -0.021

ELAC2 (UniProt Q9BQ52)
inactive: [1] 0.053 | crizotinib -0.021 | [2] 0.026 | [3] -0.02 | duvelisib 0.018 | gandotinib 0.018 | tozasertib -0.001 | [4] 0.008 | doramapimod 0.002 | ispinesib 0.025 | bafetinib 0.004 | [5] -0.009 | nilotinib 0.046 | [6] 0.017 | dasatinib -0.032 | [7] -0.041 | [8] 0.063 | [9] 0.038 | tipifarnib -0.015 | mubritinib 0.014

Retrieved one by one from the entries so far (2):
EFTUD2 (UniProt Q15029)
inactive: [1] -0.057 | crizotinib 0.099 | [2] 0.009 | [3] -0.044 | duvelisib -0.011 | gandotinib -0.028 | tozasertib -0.015 | [4] -0.054 | doramapimod 0 | ispinesib 0.037 | bafetinib -0.003 | [5] 0.017 | nilotinib 0.024 | [6] 0.034 | dasatinib 0.06 | [7] 0.005 | [8] -0.014 | [9] -0.021 | tipifarnib 0.007 | mubritinib 0.007

EIF3F (UniProt O00303)
inactive: [1] -0.02 | crizotinib 0.037 | [2] 0.073 | [3] 0.05 | duvelisib 0.03 | gandotinib -0.028 | tozasertib 0.108 | [4] 0.1 | doramapimod 0.059 | ispinesib -0.014 | bafetinib 0.077 | [5] 0.002 | nilotinib -0.04 | [6] -0.058 | dasatinib -0.051 | [7] 0.03 | [8] -0.029 | [9] -0.07 | tipifarnib -0.053 | mubritinib -0.021

(listing goes on)

EIF3M (UniProt Q7L2H7)
inactive: [1] -0.017 | crizotinib -0.042 | [2] -0.01 | [3] 0.003 | duvelisib 0.031 | gandotinib -0.044 | tozasertib 0.069 | [4] 0.076 | doramapimod -0.043 | ispinesib 0.003 | bafetinib 0.055 | [5] 0.091 | nilotinib -0.032 | [6] -0.012 | dasatinib -0.05 | [7] 0.04 | [8] -0.063 | [9] -0.087 | tipifarnib -0.095 | mubritinib -0.058

EP300 (UniProt Q09472)
inactive: [1] -0.074 | crizotinib -0.007 | [2] 0.08 | [3] -0.069 | duvelisib 0.049 | gandotinib 0.005 | tozasertib -0.018 | [4] 0.016 | doramapimod -0.024 | ispinesib 0.141 | bafetinib 0.018 | [5] 0.059 | nilotinib -0.025 | [6] -0.002 | dasatinib -0.012 | [7] -0.023 | [8] 0.034 | [9] -0.132 | tipifarnib -0.055 | mubritinib -0.032

EHBP1L1 (UniProt Q8N3D4)
inactive: [1] 0.034 | crizotinib -0.01 | [2] -0.005 | [3] 0.012 | gandotinib -0.206 | [4] 0.115 | doramapimod -0.018 | ispinesib -0.047 | bafetinib 0.194 | [5] -0.006 | nilotinib -0.081 | [6] -0.218 | dasatinib -0.123 | [7] 0.256 | [8] 0.005 | [9] 0.006 | tipifarnib -0.039 | mubritinib 0.007

EOGT (UniProt Q5NDL2)
inactive: [1] 0.052 | crizotinib 0 | [2] -0.054 | [3] 0.069 | gandotinib -0.003 | [4] -0.137 | doramapimod 0.068 | ispinesib -0.006 | bafetinib -0.009 | [5] -0.025 | nilotinib -0.044 | [6] 0.055 | dasatinib -0.052 | [7] -0.005 | [8] -0.082 | [9] -0.038 | tipifarnib 0.029 | mubritinib -0.021

EEF1D isoform 2 (UniProt P29692)
inactive: [1] 0.043 | crizotinib 0.004 | [2] -0.028 | [3] 0.066 | gandotinib -0.057 | [4] 0.04 | doramapimod 0.026 | ispinesib -0.055 | bafetinib 0.025 | [5] -0.011 | nilotinib -0.066 | [6] -0.01 | dasatinib -0.051 | [7] 0 | [8] -0.007 | [9] -0.044 | tipifarnib -0.103 | mubritinib 0.081

EEFSEC (UniProt P57772)
inactive: [1] -0.043 | crizotinib -0.057 | [2] -0.014 | [3] 0.156 | duvelisib -0.042 | gandotinib 0.081 | tozasertib 0.001 | [4] 0.06 | doramapimod 0.043 | ispinesib -0.11 | bafetinib -0.013 | [5] 0.08 | nilotinib 0.031 | [6] -0.021 | dasatinib -0.197 | [7] -0.031 | [8] -0.03 | [9] 0.004 | tipifarnib 0.002 | mubritinib 0.002

EGLN1 (UniProt Q9GZT9)
inactive: [1] 0.01 | crizotinib -0.029 | [2] -0.064 | [3] -0.035 | gandotinib -0.036 | [4] 0 | doramapimod -0.014 | ispinesib -0.04 | bafetinib -0.031 | [5] -0.018 | nilotinib 0.066 | [6] -0.026 | dasatinib -0.073 | [7] -0.036 | [8] -0.01 | [9] 0.017 | tipifarnib 0.016 | mubritinib -0.116

EIF2B2 (UniProt P49770)
inactive: [1] 0.004 | crizotinib 0.024 | [2] -0.044 | [3] 0.012 | duvelisib -0.001 | gandotinib -0.018 | tozasertib 0.053 | [4] 0.008 | doramapimod 0.004 | ispinesib 0.014 | bafetinib 0.037 | [5] 0.036 | nilotinib 0.045 | [6] -0.003 | dasatinib 0.038 | [7] -0.001 | [8] -0.086 | [9] -0.055 | tipifarnib -0.04 | mubritinib -0.005

EIF6 (UniProt P56537)
inactive: [1] 0.004 | crizotinib 0.059 | [2] -0.056 | [3] 0.029 | duvelisib 0.015 | gandotinib 0.087 | tozasertib -0.091 | [4] -0.038 | doramapimod -0.002 | ispinesib -0.003 | bafetinib -0.058 | [5] -0.053 | nilotinib -0.077 | [6] 0.035 | dasatinib 0.038 | [7] -0.05 | [8] -0.072 | [9] 0.025 | tipifarnib 0.061 | mubritinib 0.026

EHMT1 (UniProt Q9H9B1)
inactive: [1] -0.108 | crizotinib -0.023 | [2] -0.017 | [3] 0.172 | duvelisib -0.032 | gandotinib 0.21 | tozasertib 0.07 | [4] 0.062 | doramapimod 0.026 | ispinesib -0.118 | bafetinib -0.151 | [5] 0.239 | dasatinib -0.034 | [8] -0.077 | [9] 0.008 | tipifarnib 0.119 | mubritinib 0.034

EIF2B4 isoform 2 (UniProt Q9UI10)
inactive: [1] 0.031 | crizotinib -0.036 | [2] -0.06 | [3] 0.091 | duvelisib -0.017 | gandotinib 0.006 | tozasertib -0.024 | [4] 0.034 | doramapimod 0.062 | ispinesib -0.013 | bafetinib 0.082 | [5] -0.012 | nilotinib -0.026 | [6] -0.03 | dasatinib -0.023 | [7] 0.015 | [8] -0.065 | [9] -0.058 | tipifarnib -0.011 | mubritinib 0.008

EIF4G1 isoform 8 (UniProt Q04637)
inactive: [1] -0.21 | crizotinib -0.314 | [2] -0.206 | [3] 0.109 | gandotinib -0.032 | [4] 0.149 | doramapimod 0.032 | ispinesib -0.324 | bafetinib -0.002 | [5] 0.046 | nilotinib -0.223 | [6] -0.11 | dasatinib -0.157 | [7] -0.17 | [8] -0.155 | [9] -0.117 | tipifarnib -0.083 | mubritinib -0.071
